Laboratory results published in article PMC10197889.
No constants are given. Whether binding was seen depends on the method and setting. In cells and extracts the contact can be indirect. Some entries that bind do so weakly or less than the wild type. For some of these results: Sequences can lack the tags named with a protein.

The chains behind the UniProt entries cited, without tags or fusion partners. Where a name states a change or a piece, a line headed by the entry shows the natural chain unless it says otherwise.
UniProt Q9R0P9: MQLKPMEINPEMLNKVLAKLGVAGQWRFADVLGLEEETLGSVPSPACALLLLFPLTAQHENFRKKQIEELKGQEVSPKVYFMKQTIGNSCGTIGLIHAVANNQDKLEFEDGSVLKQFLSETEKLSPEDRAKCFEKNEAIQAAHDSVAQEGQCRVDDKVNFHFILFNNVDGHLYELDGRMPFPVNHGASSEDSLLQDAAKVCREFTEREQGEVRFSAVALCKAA
UniProt P09936: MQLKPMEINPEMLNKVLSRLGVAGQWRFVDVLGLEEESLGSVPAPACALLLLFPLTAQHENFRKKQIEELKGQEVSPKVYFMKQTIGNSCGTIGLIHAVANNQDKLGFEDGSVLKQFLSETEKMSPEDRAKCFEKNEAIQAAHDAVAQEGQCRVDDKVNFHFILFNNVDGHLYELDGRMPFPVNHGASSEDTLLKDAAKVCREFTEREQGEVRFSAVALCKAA
UniProt Q9EPK5: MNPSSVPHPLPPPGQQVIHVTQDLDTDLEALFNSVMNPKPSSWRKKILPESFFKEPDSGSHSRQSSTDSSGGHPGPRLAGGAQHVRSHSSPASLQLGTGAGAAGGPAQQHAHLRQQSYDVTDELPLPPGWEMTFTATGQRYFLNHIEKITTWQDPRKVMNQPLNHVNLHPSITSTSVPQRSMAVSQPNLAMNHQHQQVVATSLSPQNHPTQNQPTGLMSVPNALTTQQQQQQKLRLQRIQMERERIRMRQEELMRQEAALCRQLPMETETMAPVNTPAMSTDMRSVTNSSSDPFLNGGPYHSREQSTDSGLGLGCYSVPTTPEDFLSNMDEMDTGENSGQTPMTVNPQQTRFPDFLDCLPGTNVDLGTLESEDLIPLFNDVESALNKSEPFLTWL
UniProt Q9GZV5: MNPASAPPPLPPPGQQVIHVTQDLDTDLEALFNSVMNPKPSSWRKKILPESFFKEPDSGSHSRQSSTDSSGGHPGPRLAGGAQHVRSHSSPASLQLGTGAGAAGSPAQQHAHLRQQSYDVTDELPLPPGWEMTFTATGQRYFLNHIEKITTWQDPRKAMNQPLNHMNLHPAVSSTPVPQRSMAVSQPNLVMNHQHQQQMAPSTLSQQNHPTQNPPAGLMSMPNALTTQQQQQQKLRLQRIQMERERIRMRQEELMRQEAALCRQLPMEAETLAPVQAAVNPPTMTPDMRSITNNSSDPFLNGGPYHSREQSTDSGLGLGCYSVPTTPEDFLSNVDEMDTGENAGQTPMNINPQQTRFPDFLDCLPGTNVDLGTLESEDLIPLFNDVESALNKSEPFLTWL

Tests used:
[1] = target: ubiquitin C-terminal hydrolase 1 (UCHL1), endogenous in mouse BMMs (mouse (endogenous in BMMs)) (UniProt Q9R0P9); assay: co-IP; endogenous proteins in mouse BMM lysates (wild-type, f/f or LysM-Cre UCHL1 cKO); immunoprecipitation with anti-UCHL1, anti-TAZ or control IgG at 4°C overnight, protein A/G beads 4 h, washed 5 times with PBS, western blot
[2] = target: MYC-tagged UCHL1 (human) (UniProt P09936); assay: co-IP; HEK-293T cells co-transfected with tagged plasmids (with or without TAZ overexpression); lysates immunoprecipitated (anti-Flag) at 4°C overnight, protein A/G beads 4 h, washed 5 times with PBS, western blot
[3] = target: WW domain-containing transcription regulator protein 1 (WWTR1, TAZ), endogenous in mouse BMMs (mouse (endogenous in BMMs)) (UniProt Q9EPK5); assay: co-IP; endogenous proteins in mouse BMM lysates (wild-type, f/f or LysM-Cre UCHL1 cKO); immunoprecipitation with anti-UCHL1, anti-TAZ or control IgG at 4°C overnight, protein A/G beads 4 h, washed 5 times with PBS, western blot
[4] = target: FLAG-tagged TAZ (human) (UniProt Q9GZV5); assay: co-IP; HEK-293T cells co-transfected with tagged plasmids (with or without TAZ overexpression); lysates immunoprecipitated (anti-Flag) at 4°C overnight, protein A/G beads 4 h, washed 5 times with PBS, western blot

**Q.** “WW domain-containing transcription regulator protein 1 (WWTR1, TAZ), endogenous in mouse BMMs (from UniProt Q9EPK5 1-395)” was tested. Which binding [1] did it give?
**A.** The binding was “binds”.

**Q.** “Segment 2 of TAZ (amino acids 101-200) (from UniProt Q9GZV5 101-200) (domain or fragment)” was tested. Which binding [2] did it give?
**A.** The binding was “binds”.

B1: nuclear factor of activated T cells 1 (NFATC1), endogenous in mouse BMMs (protein, UniProt O88942 1-717)
chain: MPNTSFPVPSKFPLGPPAAVCGSGETLRPAPPSGGTMKAAEEEHYSYVSPSVTSTLPLPTAHSALPAACHDLQTSTPGISAVPSANHPPSYGGAVDSGPSGYFLSSGNTRPNGAPTLESPRIEITSYLGLHHGSGQFFHDVEVEDVLPSCKRSPSTATLHLPSLEAYRDPSCLSPASSLSSRSCNSEASSYESNYSYPYASPQTSPWQSPCVSPKTTDPEEGFPRSLGACHLLGSPRHSPSTSPRASITEESWLGARGSRPTSPCNKRKYSLNGRQPSCSPHHSPTPSPHGSPRVSVTEDTWLGNTTQYTSSAIVAAINALTTDSTLDLGDGVPIKSRKTALEHAPSVALKVEPAGEDLGTTPPTSDFPPEEYTFQHLRKGAFCEQYLSVPQASYQWAKPKSLSPTSYMSPSLPALDWQLPSHSGPYELRIEVQPKSHHRAHYETEGSRGAVKASAGGHPIVQLHGYLENEPLTLQLFIGTADDRLLRPHAFYQVHRITGKTVSTTSHEIILSNTKVLEIPLLPENNMRAIIDCAGILKLRNSDIELRKGETDIGRKNTRVRLVFRVHIPQPNGRTLSLQVASNPIECSQRSAQELPLVEKQSTDSYPVIGGKKMVLSGHNFLQDSKVIFVEKAPDGHHVWEMEAKTDRDLCKPNSLVVEIPPFRNQRITSPAQVSFYVCNGKRKRSQYQRFTYLPANGNSVFLTLSSESELRGGFY
**Q.** For B1, which binding [3] is on record?
**A.** The binding was “binds”.

B2: full-length Myc-NFATC1 (protein, UniProt O95644 1-943)
chain: MPSTSFPVPSKFPLGPAAAVFGRGETLGPAPRAGGTMKSAEEEHYGYASSNVSPALPLPTAHSTLPAPCHNLQTSTPGIIPPADHPSGYGAALDGGPAGYFLSSGHTRPDGAPALESPRIEITSCLGLYHNNNQFFHDVEVEDVLPSSKRSPSTATLSLPSLEAYRDPSCLSPASSLSSRSCNSEASSYESNYSYPYASPQTSPWQSPCVSPKTTDPEEGFPRGLGACTLLGSPRHSPSTSPRASVTEESWLGARSSRPASPCNKRKYSLNGRQPPYSPHHSPTPSPHGSPRVSVTDDSWLGNTTQYTSSAIVAAINALTTDSSLDLGDGVPVKSRKTTLEQPPSVALKVEPVGEDLGSPPPPADFAPEDYSSFQHIRKGGFCDQYLAVPQHPYQWAKPKPLSPTSYMSPTLPALDWQLPSHSGPYELRIEVQPKSHHRAHYETEGSRGAVKASAGGHPIVQLHGYLENEPLMLQLFIGTADDRLLRPHAFYQVHRITGKTVSTTSHEAILSNTKVLEIPLLPENSMRAVIDCAGILKLRNSDIELRKGETDIGRKNTRVRLVFRVHVPQPSGRTLSLQVASNPIECSQRSAQELPLVEKQSTDSYPVVGGKKMVLSGHNFLQDSKVIFVEKAPDGHHVWEMEAKTDRDLCKPNSLVVEIPPFRNQRITSPVHVSFYVCNGKRKRSQYQRFTYLPANVPIIKTEPTDDYEPAPTCGPVSQGLSPLPRPYYSQQLAMPPDPSSCLVAGFPPCPQRSTLMPAAPGVSPKLHDLSPAAYTKGVASPGHCHLGLPQPAGEAPAVQDVPRPVATHPGSPGQPPPALLPQQVSAPPSSSCPPGLEHSLCPSSPSPPLPPATQEPTCLQPCSPACPPATGRPQHLPSTVRRDESPTAGPRLLPEVHEDGSPNLAPIPVTVKREPEELDQLYLDDVNEIIRNDLSSTSTHS
**Q.** How did the binding [4] turn out when B2 was run?
**A.** The binding was “binds”.
